Measured values published in patent US20250090441A1 (THE UNIVERSITY OF HONG KONG, priority 2023, published 2025).
For some assays here: Plain letter strings leave the end groups untold. Where a SMILES comes first, the peptide text is derived from it.

Assays:
[1] = Remineralizing effects on enamel, chemical pH cycling model (SEM-EDS, Micro-CT, XRD); set-up: species or system human; settings: 160 μM, after pH cycling
Description: Ten enamel slices were cut from extracted sound human molars. Each slice was separated into four blocks. A total of 40 enamel blocks were prepared. Then the surface of the enamel block was half-covered by an acid-resistant varnish. The exposed half was the experimental surface, and the varnished half was the internal control. Before use, all the enamel blocks were sterilized via autoclave (Niu et al. 2021d; Yu et al. 2018).
The pH-cycling procedure (16 h-demineralization at pH 4.5 and 8 h-remineralization at pH 7.0) was performed to enamel blocks for 8 days. The formula for demineralizing/remineralizing solution was employed from a previous study (Yu et al. 2018). […]
The structure of the enamel surface was examined using SEM (n=8 per group) (Niu et al. 2021d). […] The calcium to phosphorus molar ratio was calculated (Niu et al. 2022). The mineral loss and lesion depth on the enamel blocks were assessed using microcomputed tomography (Micro-CT) (1076, SkyScan, Antwerp, Belgium) (n=8 per group) (Niu et al. 2022). The diffraction patterns of the enamel blocks were evaluated using X-ray diffraction analysis (XRD) (Rigaku SmartLab 9 kW, […]) (n=2 per group) (Yu et al. 2018).

[2] = general procedure: Fmoc solid-phase peptide synthesis; settings: whole synthesis, HPLC area percentage of major peak, several disulfide bridges, sequence written open

Molecule	X-ray diffraction reflection peak at full width and half maximum [1] [°]	purity (crude or final not stated) [2] [%]
CC(C)[C@@H]1NC(=O)[C@H](CCCN=C(N)N)NC(=O)[C@H](Cc2ccccc2)NC(=O)[C@@H](NC(=O)[C@H](Cc2c[nH]c3ccccc23)NC(=O)[C@H](CCCN=C(N)N)NC(=O)[C@H](CCCN=C(N)N)NC(=O)c2cc(O)c(O)c(O)c2)CSSC[C@@H](C(=O)N[C@@H](CCCN=C(N)N)C(=O)O)NC(=O)[C@H](CCCCN)NC(=O)[C@H](CCCN=C(N)N)NC(=O)[C@H](Cc2ccc(O)cc2)NC(=O)[C@@H]2CSSC[C@H](NC1=O)C(=O)N[C@@H](Cc1ccc(O)cc1)C(=O)N[C@@H](CCCN=C(N)N)C(=O)NCC(=O)N[C@@H](Cc1ccccc1)C(=O)N2 [GAPI, Gallic-Acid-Polyphemusin-I] (HELM PEPTIDE1{[O=C(c1cc(O)c(O)c(O)c1)[*:2]].R.R.W.C.F.R.V.C.Y.R.G.F.C.Y.R.K.C.R}$PEPTIDE1,PEPTIDE1,5:R3-18:R3|PEPTIDE1,PEPTIDE1,9:R3-14:R3$$$V2.0)	0.237	–
RRWCFRVCYRGFCYRKCR	–	96.91
